Laboratory results published in publication PMC4752349.
Results are given in words; binding and its absence hold for the method and conditions named. For some assays here: In cells and extracts the contact can be indirect. Some entries that bind do so weakly or less than the wild type. For some assays here: Where a sequence is shown, tags or fusion partners need not be part of it.

By UniProt entry, the sequences of proteins in these tests, tags left out.
UniProt P62191: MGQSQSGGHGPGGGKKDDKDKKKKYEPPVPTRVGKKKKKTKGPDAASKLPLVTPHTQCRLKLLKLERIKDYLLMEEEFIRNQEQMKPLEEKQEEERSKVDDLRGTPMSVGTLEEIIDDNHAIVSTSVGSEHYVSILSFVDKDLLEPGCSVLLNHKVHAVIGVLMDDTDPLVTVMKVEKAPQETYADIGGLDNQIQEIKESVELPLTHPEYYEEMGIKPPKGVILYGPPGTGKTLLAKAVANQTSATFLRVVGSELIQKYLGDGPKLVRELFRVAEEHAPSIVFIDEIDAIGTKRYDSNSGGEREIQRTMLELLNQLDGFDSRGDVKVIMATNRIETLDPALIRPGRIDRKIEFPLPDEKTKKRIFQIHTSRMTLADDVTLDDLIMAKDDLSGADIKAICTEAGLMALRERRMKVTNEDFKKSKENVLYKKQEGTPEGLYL

What was measured:
[1] = target: T1, endogenous TOPORS of hTERT-RPE1 cells (human (endogenous in hTERT-RPE1)) (UniProt Q9NS56); experiment: co-IP; endogenous proteins; mouse monoclonal anti-TOPORS on Protein G magnetic beads, lysates of hTERT-RPE1 or 661W cells in RIPA buffer, one hour at room temperature; Western blot for P26s4
T1 sequence: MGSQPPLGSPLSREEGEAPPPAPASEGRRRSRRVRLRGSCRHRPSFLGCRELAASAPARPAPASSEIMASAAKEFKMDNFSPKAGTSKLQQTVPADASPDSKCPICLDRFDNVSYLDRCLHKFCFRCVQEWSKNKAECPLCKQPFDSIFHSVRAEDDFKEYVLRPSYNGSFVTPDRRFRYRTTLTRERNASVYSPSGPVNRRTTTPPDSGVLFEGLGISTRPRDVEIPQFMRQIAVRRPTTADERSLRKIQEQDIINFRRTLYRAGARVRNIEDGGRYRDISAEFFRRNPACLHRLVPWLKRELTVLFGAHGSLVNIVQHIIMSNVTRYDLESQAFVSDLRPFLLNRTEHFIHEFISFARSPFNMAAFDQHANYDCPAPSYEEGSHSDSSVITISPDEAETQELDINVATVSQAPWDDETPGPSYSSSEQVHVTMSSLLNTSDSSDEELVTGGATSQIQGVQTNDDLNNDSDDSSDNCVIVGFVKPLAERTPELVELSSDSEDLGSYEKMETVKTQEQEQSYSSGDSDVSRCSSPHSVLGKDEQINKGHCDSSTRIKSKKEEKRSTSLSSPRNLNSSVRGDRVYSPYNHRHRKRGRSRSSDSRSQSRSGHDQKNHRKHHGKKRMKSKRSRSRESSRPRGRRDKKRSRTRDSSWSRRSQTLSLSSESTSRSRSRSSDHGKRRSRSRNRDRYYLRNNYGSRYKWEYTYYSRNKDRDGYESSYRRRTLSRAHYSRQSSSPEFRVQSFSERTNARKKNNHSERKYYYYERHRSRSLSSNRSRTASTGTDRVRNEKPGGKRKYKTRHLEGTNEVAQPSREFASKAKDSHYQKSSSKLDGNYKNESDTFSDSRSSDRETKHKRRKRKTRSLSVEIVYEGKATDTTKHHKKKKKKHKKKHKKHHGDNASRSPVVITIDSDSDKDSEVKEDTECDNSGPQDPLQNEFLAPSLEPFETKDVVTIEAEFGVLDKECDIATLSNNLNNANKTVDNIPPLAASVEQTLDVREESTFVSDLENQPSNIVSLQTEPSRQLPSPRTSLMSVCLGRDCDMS

[2] = target: T2, M-TOPORS (residues 373-781), pGBKT7-M-TOPORS (human) (UniProt Q9NS56); experiment: two-hybrid; direct test of pAD-PSMC1 against pBD-TOPORS or pGBKT7-N-, M-, C-TOPORS; media D (two reporter genes) and Q (four reporter genes); six experiments, four or more positives read as positive
T2 sequence: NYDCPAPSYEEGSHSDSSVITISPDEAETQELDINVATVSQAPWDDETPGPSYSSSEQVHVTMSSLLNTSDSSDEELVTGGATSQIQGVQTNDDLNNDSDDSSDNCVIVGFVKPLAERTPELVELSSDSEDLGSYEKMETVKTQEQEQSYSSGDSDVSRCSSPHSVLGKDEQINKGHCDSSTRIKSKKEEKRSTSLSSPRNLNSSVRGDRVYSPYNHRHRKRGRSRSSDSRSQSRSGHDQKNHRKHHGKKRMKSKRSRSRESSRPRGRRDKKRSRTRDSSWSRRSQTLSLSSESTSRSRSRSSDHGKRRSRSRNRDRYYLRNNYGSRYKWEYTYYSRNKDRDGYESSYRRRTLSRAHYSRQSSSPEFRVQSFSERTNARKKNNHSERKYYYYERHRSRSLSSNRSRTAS

[3] = target: T3, GAL4 DNA binding domain (BD) fused with full-length TOPORS (pBD-TOPORS) (human) (UniProt Q9NS56); experiment: as above
T3 sequence: T1 sequence

[4] = target: T4, N-TOPORS (residues 1-380), pGBKT7-N-TOPORS (human) (UniProt Q9NS56); experiment: as above
T4 sequence: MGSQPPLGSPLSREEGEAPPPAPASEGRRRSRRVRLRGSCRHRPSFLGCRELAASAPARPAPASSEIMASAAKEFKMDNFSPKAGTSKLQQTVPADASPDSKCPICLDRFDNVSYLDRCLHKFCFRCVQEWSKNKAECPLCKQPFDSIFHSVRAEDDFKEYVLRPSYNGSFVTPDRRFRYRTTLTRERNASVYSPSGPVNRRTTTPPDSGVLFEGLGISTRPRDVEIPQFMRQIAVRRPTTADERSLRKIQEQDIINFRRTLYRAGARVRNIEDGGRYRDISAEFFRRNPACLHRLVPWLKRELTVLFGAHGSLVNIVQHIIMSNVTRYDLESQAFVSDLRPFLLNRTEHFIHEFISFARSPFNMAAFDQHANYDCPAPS

[5] = target: T5, C-TOPORS (residues 705-1045), pGBKT7-C-TOPORS (human) (UniProt Q9NS56); experiment: as above
T5 sequence: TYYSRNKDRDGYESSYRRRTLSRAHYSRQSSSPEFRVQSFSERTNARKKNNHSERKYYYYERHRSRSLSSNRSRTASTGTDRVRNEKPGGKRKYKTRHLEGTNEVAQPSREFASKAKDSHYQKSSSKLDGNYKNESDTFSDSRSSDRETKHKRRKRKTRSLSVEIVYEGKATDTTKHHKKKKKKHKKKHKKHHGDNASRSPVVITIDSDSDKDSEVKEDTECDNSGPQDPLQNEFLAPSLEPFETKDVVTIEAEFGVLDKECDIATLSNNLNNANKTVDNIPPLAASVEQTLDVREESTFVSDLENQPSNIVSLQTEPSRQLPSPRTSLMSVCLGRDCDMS

Row | Substance | binding [1] | binding [2] | binding [3] | binding [4] | binding [5]
1 | endogenous P26s4 of hTERT-RPE1 cells, band of approximately 60 kDa (from UniProt P62191 1-440) | binds | – | – | – | –
2 | full-length P26s4 fused with the GAL4 activation domain (pAD-PSMC1) (from UniProt P62191 1-440) | – | binds | binds | binds weakly | binds
